Some of the results follow.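 How the source made its calls: active = mitochondrial OCR inhibition above 30% at 1 uM; inactive = 30% or less.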 Repeats are few or missing, and single values can be far off.
Each compound was assayed on Toxoplasma gondii RH tachyzoites (assay: inhibition of mitochondrial O2 consumption rate (% inhibition (relative to pre-injection OCR and atovaquone/antimycin A control)); higher = stronger ETC inhibition). Conditions: 1 µM; injection port (sequential injection order): A.
With `c1ccc(Oc2ccc(-c3cncc(-c4ccc5[nH]ccc5c4)n3)cc2)cc1` the “inhibition of mitochondrial O2 consumption rate” value (shortened to “inhibition”) was inactive: -2.68.
`c1ccc(Oc2ccc(-c3cc(C4CCOCC4)[nH]n3)cc2)cc1` was tested, and the “inhibition” value was inactive: 4.42.
With `Nc1nccc2ccc(-c3ccc4nccn4c3)cc12` the “inhibition” value was inactive: -5.31.
In the case of `O=C(CN1CCOCC1)Nc1ccc2ncnc(Nc3ccc(OCc4cccc(F)c4)c(Cl)c3)c2c1`, the “inhibition” value was inactive: -1.01.
For `CCCn1c(CNc2ccccc2O)nc2ccccc21`, the “inhibition” value was inactive: -2.42.
With `COc1ccc(-c2nc(-c3cccc(NC(=O)Cc4ccc(F)cc4)c3)no2)cc1OC` the “inhibition” value was inactive: -2.36.
In the case of `CS(=O)(=O)N1CCC(CCn2nc(Cc3cccc4ccccc34)c3c(N)ncnc32)CC1`, the “inhibition” value was inactive: 8.76.
With `FC(F)(F)c1cccc(-c2nc3c(NCc4ccncc4)nccc3[nH]2)c1` the “inhibition” value was inactive: -16.9.
With `O=C(NC1=NCCS1)c1sc2cc(F)ccc2c1Cl` the “inhibition” value was inactive: -3.55.
`Cc1cc(C)cc(COc2ccc3c(C)c(CCC(=O)O)c(=O)oc3c2C)c1` was tested, and the “inhibition” value was inactive: -5.32.

Reference: the supplement of paper PMC10403144
